This is an account of results in patent US20090269798A1, “METHOD AND SYSTEM FOR SELECTING CHEMOTHERAPEUTIC AGENTS” (UNIVERSITY OF NORTHERN IOWA RESEARCH FOUNDATION, priority 2008, published 2009).

Like-named read-outs stand apart in the source and are kept apart here. Marks after values point to notes of the source that are not given here.

Holding throughout (conditions): 30-minute exposure, ± standard deviation
The test system of data set [1] is THP-1 (human monocytic leukemia).
Data set [2] deals with K-562 (human erythroleukemia).
Data set [3] concerns YT-INDY (human NK cell leukemia).
The next data set relates to Normal PBMC.
In data set [4] the test system is Jurkat (human T lymphocytic leukemia).
Where [5] appears, read: initial 25 μM hydrogen peroxide.
Where [6] appears, read: initial 50 μM hydrogen peroxide.
The mark [7] stands for this setting: initial 100 μM hydrogen peroxide.
[8] abbreviates: initial 200 μM hydrogen peroxide.

With `OO` [Hydrogen Peroxide, hydrogen peroxide], the “percentage of hydrogen peroxide remaining in cultures” value turned out to be 12.8 ± 0.4% in data set [1] (setting [5]); 10.4 ± 0.2% in data set [1] (setting [6]); 11.1 ± 0.0% in data set [1] (setting [7]); 13.9 ± 0.3% in data set [1] (setting [8]); 47.6 ± 1.6% in data set [2] (setting [5]); 54.8 ± 10.0% in data set [2] (setting [6]). Also, the “percentage of hydrogen peroxide remaining in cultures” value in data set [2] (setting [7]) is 73.1 ± 2.1%; in data set [2] (setting [8]) it was 73.1 ± 1.4%; in data set [3] (setting [5]) it was 48.0 ± 1.6%; in data set [3] (setting [6]), 32.1 ± 0.0%; in data set [3] (setting [7]) it was 30.9 ± 1.1%; in data set [3] (setting [8]), 49.3 ± 2.3%. Also, the “percentage of hydrogen peroxide remaining in cultures” value with Normal PBMC (setting [5]) is 31.7 ± 2.4^b %; with Normal PBMC (setting [6]), 13.8 ± 1.8%; in the data set with Normal PBMC (setting [7]) it was 9.2 ± 1.9%; in the data set on Normal PBMC (setting [8]), 11.8 ± 0.4%; in data set [4] (setting [5]) it was 97.2 ± 6.8%; in data set [4] (setting [6]), 73.0 ± 18.8%. Besides, the entries for the “percentage of hydrogen peroxide remaining in cultures” value in data set [4] (setting [7]) and in data set [4] (setting [8]) were 85.3 ± 13.0% and 96.0 ± 0.0%, respectively.
